Our source for the binding values is US20110118181A1.

The chains behind the UniProt entries cited, without tags or fusion partners. Where a name states a change or a piece, a line headed by the entry shows the natural chain unless it says otherwise. Residues count along the entry.
UniProt P04083: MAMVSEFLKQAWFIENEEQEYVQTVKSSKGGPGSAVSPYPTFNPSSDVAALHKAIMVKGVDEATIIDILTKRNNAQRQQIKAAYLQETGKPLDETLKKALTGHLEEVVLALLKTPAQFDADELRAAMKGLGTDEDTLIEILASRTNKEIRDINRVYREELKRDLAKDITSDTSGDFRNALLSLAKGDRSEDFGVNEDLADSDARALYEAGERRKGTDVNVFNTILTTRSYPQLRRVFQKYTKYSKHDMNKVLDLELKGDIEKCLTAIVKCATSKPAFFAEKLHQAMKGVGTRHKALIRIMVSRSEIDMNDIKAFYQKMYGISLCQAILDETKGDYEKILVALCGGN
UniProt Q8NBP7, residues 31-692: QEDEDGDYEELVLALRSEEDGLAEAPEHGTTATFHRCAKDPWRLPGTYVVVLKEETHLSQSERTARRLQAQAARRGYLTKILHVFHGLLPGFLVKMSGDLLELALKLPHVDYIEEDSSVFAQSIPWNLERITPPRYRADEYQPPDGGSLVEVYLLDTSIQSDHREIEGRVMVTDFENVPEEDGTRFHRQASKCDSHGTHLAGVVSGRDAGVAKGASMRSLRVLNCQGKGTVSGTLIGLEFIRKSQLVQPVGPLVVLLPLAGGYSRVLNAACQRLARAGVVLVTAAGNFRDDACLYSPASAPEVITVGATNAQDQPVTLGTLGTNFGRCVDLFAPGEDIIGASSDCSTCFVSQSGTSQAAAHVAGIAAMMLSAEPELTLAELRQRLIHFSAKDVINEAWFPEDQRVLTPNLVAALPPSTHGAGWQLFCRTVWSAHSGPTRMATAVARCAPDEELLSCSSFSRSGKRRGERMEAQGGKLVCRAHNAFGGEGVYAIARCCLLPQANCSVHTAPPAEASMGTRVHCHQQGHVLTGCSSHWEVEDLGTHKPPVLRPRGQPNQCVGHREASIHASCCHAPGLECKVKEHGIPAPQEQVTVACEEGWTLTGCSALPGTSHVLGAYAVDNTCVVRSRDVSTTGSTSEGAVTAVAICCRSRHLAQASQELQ

Results are given in words; binding and its absence hold for the method and conditions named. Binding can be weak; no strength is given.

This experiment has as its target AnxA2 SW49-61 (AnxA2 aa 49-61 replaced by AnxA1 aa 58-70), HA-tagged (human) (UniProt P04083). The experiment is described as follows: Far Western blot of HEK293 lysates (49-61 swap: reduced).

“PCSK9-V5 (full-length human PCSK9 with C-terminal V5 tag) (from UniProt Q8NBP7 31-692) (enzyme)”: the binding entry is “binds”.
